Data: US20090054329A1, “COMPOSITION WITH DOCOSAPENTAENOIC ACID” (N.V. Nutricia, priority 2005, published 2009)
At least one compound was matched to its structure with a doubt left.

Assays:
[1] = tested on: intestinal epithelial cell lines T84; experiment: Transepithelial resistance (TER) of T84 monolayers; type: cell-based, human; conditions: both under basal and barrier disruptive conditions, 100 μM, 72 hr
Description: Monolayers (MC) of intestinal epithelial cell lines T84 (American Type Culture Collection (ATTC), Manassas, USA) were cultured on transwell filters (Corning, Costar BV, The Netherlands) allowing both mucosal and serosal sampling and stimulation of human intestinal epithelial cells. […] Louis, USA). The latter procedure was chosen to mimic the in vivo administration route of the dietary compounds. […] Experiments were performed to evaluate basal barrier integrity and cytokine (IL-4) induced barrier disruption. The epithelial barrier function was determined by measuring the transepithelial resistance (TER, Ω.cm^2) by epithelial volt-ohm meter (EVOM; World Precision Instruments, Germany) and permeability for 4 kD FITC dextran (paracellular permeability marker, Sigma, USA). Epithelial permeability for 4 kDa FITC-dextran was determined as follows. Prior to dextran fluxes the medium was refreshed with culture medium without phenol red for one hour followed by addition of 5 μl (stock 100 mg/ml) 4 kDa FITC-dextran to the luminal compartment. After 60 min of incubation 100 μl sample was collected from the serosal compartment and the fluorescent signal measured at excitation wavelength 485 nm and emission 520 nm (FLUOstar Galaxy®, BMG Labtechnologies, USA). FITC-dextran fluxes were calculated as pmol FITC-dextran/cm^2/h. Statistical analyses were performed using the ANOVA (SPSS version 10).

[2] = tested on: intestinal epithelial cell lines T84; experiment: Permeability for 4 kD FITC dextran (flux) across T84 monolayers; type: cell-based, human; conditions: incubations with cytokines (IL-4), 100 μM, 72 hr
Description: Monolayers (MC) of intestinal epithelial cell lines T84 (American Type Culture Collection (ATTC), Manassas, USA) were cultured on transwell filters (Corning, Costar BV, The Netherlands) allowing both mucosal and serosal sampling and stimulation of human intestinal epithelial cells. Two weeks post confluence the monolayers were incubated in the luminal compartment with polyunsaturated fatty acids DPA (7,10,13,16,19-docosapentaenoic acid, 22:5 n3), AA (arachidonic acid; 5,8,11,14-eicosatetraenoic acid), DHA (cis-4,7,10,13,16,19 docosahexaenoic acid), EPA (eicosapentaenoic acid) or control palmitic (C 16:0) acid (Palm) (Sigma, St. Louis, USA). […]
Experiments were performed to evaluate basal barrier integrity and cytokine (IL-4) induced barrier disruption. The epithelial barrier function was determined by measuring the transepithelial resistance (TER, Ω.cm^2) by epithelial volt-ohm meter (EVOM; World Precision Instruments, Germany) and permeability for 4 kD FITC dextran (paracellular permeability marker, Sigma, USA). Epithelial permeability for 4 kDa FITC-dextran was determined as follows. […] After 60 min of incubation 100 μl sample was collected from the serosal compartment and the fluorescent signal measured at excitation wavelength 485 nm and emission 520 nm (FLUOstar Galaxy®, BMG Labtechnologies, USA). FITC-dextran fluxes were calculated as pmol FITC-dextran/cm^2/h. […]

CC/C=C\C/C=C\C/C=C\C/C=C\C/C=C\CCCC(=O)O [EPA, eicosapentaenoic acid]
Effect on epithelial resistance (in words) [1]: improve epithelial resistance | Effect on increase of permeability caused by cytokines (in words) [2]: effectively reduced
